Library screen at single concentrations

By UniProt entry, the sequences of proteins in these tests, tags left out. Residues count along the entry.
UniProt Q4DA54, 1-478: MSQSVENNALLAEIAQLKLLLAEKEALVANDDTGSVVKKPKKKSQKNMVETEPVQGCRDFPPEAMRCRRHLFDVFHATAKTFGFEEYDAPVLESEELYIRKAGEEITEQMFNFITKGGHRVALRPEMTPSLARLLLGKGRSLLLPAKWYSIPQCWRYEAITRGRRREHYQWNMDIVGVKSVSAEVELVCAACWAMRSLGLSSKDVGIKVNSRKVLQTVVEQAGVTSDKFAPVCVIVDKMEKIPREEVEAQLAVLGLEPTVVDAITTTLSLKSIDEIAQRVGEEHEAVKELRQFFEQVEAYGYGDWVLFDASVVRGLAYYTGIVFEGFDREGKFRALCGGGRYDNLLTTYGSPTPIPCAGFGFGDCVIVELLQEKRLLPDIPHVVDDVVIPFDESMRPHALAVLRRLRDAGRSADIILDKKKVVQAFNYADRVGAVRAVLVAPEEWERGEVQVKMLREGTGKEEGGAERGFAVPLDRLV

From ChEMBL document CHEMBL3988442, “University of Dundee, Small-Polar-MMV Screening Library” (2021).

Values are the deposited “Percent Effect”, in %. How 0% and 100% were set is not recorded. Most values in the screen are low, and negative values occur. Compounds were drawn at random from those tested, without regard to their results.

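Histidine-tRNA ligase, Trypanosoma cruzi CL Brener (UniProt Q4DA54). Enzyme assay of histidyl-tRNA synthetase; the read-out is not stated. Compounds at 30 µM. The record gives no direction; compounds that gave an IC50 in retests scored well above the rest, so higher reads as stronger inhibition. Of about 69,000 compounds tested this way, about 31 (0.045%) reached 50% or more in at least one test.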

With Cc1cc(C2CCCN(C(=O)c3ccc(Cl)o3)C2)n[nH]1 (stereo unspecified) the screen gave 2.89%.
With Cc1ccccc1C(CC(=O)NCC(N)=O)c1ccccc1 (stereo unspecified) the screen gave 3.947%.
With O[C@H]1CN(Cc2cc3ccccc3o2)CC[C@@]12CCCO2 the screen gave 9.886%.
With CCN1CCCc2cc(CN3CCc4c(nc(C)[nH]c4=O)C3)ccc21 the screen gave 0.8571%.
With CC1(C)Cc2nc(C(C)(C)C)ncc2C(NC(=O)C2(N)CC2)C1 (stereo unspecified) the screen gave 11.44%.
With CC(=O)N1CCCC(Cc2nccn2C)C1 (stereo unspecified) the screen gave 13.19%.
With O=C(Nc1ccccc1F)c1nn(C2CCS(=O)(=O)C2)c2c1CCCC2 (stereo unspecified) the screen gave -3.727%.
With CC(Cn1cccn1)NCc1ccc(OCc2ccncc2)cc1 (stereo unspecified) the screen gave 5.07%.
With CC(C)CN1C(=O)CO[C@@H]2CN(C(=O)N(C)C)C[C@H]21 the screen gave 5.376%.
With OCC1(Cc2ccc(Cl)cc2)CCN(Cc2ccccc2O)CC1 the screen gave 8.696%.
With Cc1ccc(CN(Cc2ccncc2)C2CC(C)(C)NC(C)(C)C2)o1 the screen gave 7.778%.
With O=C(c1cn(-c2ccccc2Cl)nn1)N1CCN(CCO)CC1 the screen gave -2.41%.
With Cc1cc(C(=O)NCCc2nc3c(s2)CCCC3)n(C)n1 the screen gave 1.01%.
With Cc1cc(C(=O)N(C)CCCn2cccn2)nc(N)n1 the screen gave 0%.
With CCn1cnnc1CNC(=O)NC(C)C(C)C (stereo unspecified) the screen gave -4.58%.
With NC(=O)c1cccc(CC2CCN(C(=O)CCCN3CCOCC3)C2)c1 (stereo unspecified) the screen gave 4.959%.
With CCN(C(=O)CN(Cc1cccc(O)c1)C1CCC(O)CC1)C1CC1 (stereo unspecified) the screen gave 3.784%.
With COc1ccc(-c2ncc(-c3nccn3CCN(C)C)cn2)cc1 the screen gave -1.058%.
With c1ccc(-c2noc(CN3CCc4c(ncn4C4CC4)C3)n2)nc1 the screen gave 5.051%.
With Cc1nnc(C(C)N2CCN(Cc3ccc(C#N)cc3)CC2)o1 (stereo unspecified) the screen gave 2.256%.
With CC(C)OCCS(=O)(=O)N1CCN(Cc2cccn2C)CC1 the screen gave 0%.
With CCc1oc(C(=O)N[C@@H]2c3ccccc3C[C@@H]2O)cc1C the screen gave -1.739%.
With CNC(=O)c1nc(CN2CCOC(CCCC(C)C)C2)no1 (stereo unspecified) the screen gave -0.5525%.
With CCN(CC(=O)NC(C)C)S(=O)(=O)N1CCCCCC1 the screen gave -3.39%.
With COCc1nc(CNC(=O)c2cc(C)c(C)[nH]c2=O)no1 the screen gave -1.117%.
With CCn1c(CN2CCC(O)(C(=O)OC)CC2)nc2c(F)cccc21 the screen gave -1.141%.
With Cc1ccc(N2CCC3(CN(CCO)CCC3(F)F)C2)nn1 (stereo unspecified) the screen gave 0%.
With Cc1nc(CCNC(=O)NC2CCN(c3ncccn3)CC2)cs1 the screen gave 0%.
With CC(C(=O)NCCN1CCN(C)CC1)n1cncn1 (stereo unspecified) the screen gave 1.156%.
With CCOc1ccc(CN2CCC(c3nc(C)cc(C)n3)C2)cc1CO (stereo unspecified) the screen gave 3.788%.
With CCOc1ccc(C(=O)CCC(=O)NCc2cncn2CC)cc1C the screen gave -0.5952%.
With CCCc1cc(NCCN2CCNC2=O)n2nccc2n1 the screen gave 6.077%.
With CNC(=O)C1CCN(c2cc(C3CCNCC3)nc(C)n2)C1 (stereo unspecified) the screen gave -0.5405%.
With N[C@@H](Cc1c[nH]cn1)C(=O)N1CCC(Oc2ccc(Cl)cc2)CC1 the screen gave 13%.
With CCCc1ccc(S(=O)(=O)Nc2ccc(=O)n(C)c2)cc1 the screen gave 4.094%.
With Cc1nc(C)n(CC2CCCN2Cc2nnc(-c3ccco3)o2)n1 (stereo unspecified) the screen gave 0%.

Some entries from above, unchanged:

SMILES,percent effect
Cc1nc(C)n(CC2CCCN2Cc2nnc(-c3ccco3)o2)n1 (stereo unspecified),0%
Cc1ccc(CN(Cc2ccncc2)C2CC(C)(C)NC(C)(C)C2)o1,7.778%
CCN1CCCc2cc(CN3CCc4c(nc(C)[nH]c4=O)C3)ccc21,0.8571%
COc1ccc(-c2ncc(-c3nccn3CCN(C)C)cn2)cc1,-1.058%
CCOc1ccc(CN2CCC(c3nc(C)cc(C)n3)C2)cc1CO (stereo unspecified),3.788%